Data from article PMC12603240.
Results are given in words; binding and its absence hold for the method and conditions named. Binding seen in cells or lysates may run through a third protein. Some entries that bind do so weakly or less than the wild type.

How the values were obtained:
c-Cbl-myc = c-Cbl-myc (UniProt P22681); test: co-IP; HEK-293T cells transfected with FGFR4-Flag and c-Cbl-myc, lysed, immunoprecipitated with MYC-tag or Flag-tag antibody, Western blot; also with cLMNB1 overexpression vector and MG132 (interaction markedly enhanced by cLMNB1)
[1] = biological target: E3 ubiquitin-protein ligase CBL (c-Cbl), endogenous (human (endogenous in PC9OR)) (UniProt P22681); test: co-IP; PC9OR cells lysed, immunoprecipitated with anti-c-Cbl and blotted with FGFR4 antibody, and vice versa; endogenous proteins
[2] = biological target: E3 ubiquitin-protein ligase CBL (c-Cbl), endogenous (human (endogenous in PC9OR)) (UniProt P22681); test: proximity ligation; Duolink in situ PLA of FGFR4 and c-Cbl in the indicated cells, with or without cLMNB1 overexpression; average PLA spots per cell

binding (c-Cbl-myc) | binding [1] | binding [2] | Substance
binds |  |  | FGFR4-Flag (from UniProt P22455 22-802) (receptor)
 | binds | binds | fibroblast growth factor receptor 4 (FGFR4), endogenous (from UniProt P22455 22-802)
